Data set [1] can be described thus: Hcrt-1 level by solid-phase RIA in normal human.
Data set [2] in a line: Hcrt-1 level by solid-phase RIA in narcoleptic dog.

“hypocretin-1 (QPLPDCCRQKTCSCRLYELLHGAGNHAAGILTL; Orexin-A; UniProt O43612 34-66, looked up) [Hcrt-1, hypocretin neuropeptide derived from prepro-hypocretin; human orexin-A is reported as a 33 residue peptide of 3562 Da]”: the Mean level in data set [1] (Blood serum) amounted to 10 fmol/mL; in data set [1] (Cerebrospinal fluid), 62 fmol/mL; in data set [2] (Blood serum), 11 fmol/mL; in data set [2] (Cerebrospinal fluid) it was 53 fmol/mL.

The record behind these values is patent publication US7662780B2, “Administering hypocretin to obese individuals” (The Regents of the University of California, priority 2003, dated 2010).
